Experimental data reported in PubChem BioAssay AID445 (National Center for Advancing Translational Sciences (NCATS), 2006).
Some of the results follow. Shown are side measurements of this screen, not its main read-out; they come without a call. The list favours compounds with an active or inconclusive main result. Words in brackets tell the shape of the fitted curve; partial curves, single points and poor fits give uncertain potencies.

Assay: IkB Signaling
Details: ABC-DLBCL IkBa-CBG/CBR dual luciferase ratio (green luciferase fused to IkBa over red control in OCI-Ly3 lymphoma cells), 4 h; measured here: control luc red channel unless noted
Summary of the method: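 Curves were fitted separately to fusion (green), unfused (red) and ratio luminescence, then classed by r2, magnitude and activity. Cells: OCI-Ly3, 4 h compound plus doxycycline at 37C; 10 uM MG-132 defined full response.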

Row | SMILES | AC50
1 | CN1c2ccc(Cl)cc2-c2nc(SCC(=O)NCc3ccc(F)cc3)ncc2S1(=O)=O | 12.6 µM [rising, partial curve, poor fit]
2 | CC1=C(C(=O)Nc2ccc(C)cc2C)C(c2ccccc2)n2nc(SCC(=O)c3ccc(C)cc3)nc2N1 (configuration not stated) | 7.94 µM [rising, single point]
3 | Cc1cc(Nc2ccc(Br)cc2)n2nc(-c3ccccc3C)nc2n1 | 25.1 µM [falling, partial curve]
4 | Oc1ccc(-c2nc(-c3ccc(F)cc3)c(-c3ccncc3)[nH]2)cc1 | 39.8 µM [falling, partial curve, poor fit]
5 | Cc1onc(-c2ccccc2)c1C(=O)Nc1nnc(COc2ccc(Cl)cc2)s1 | 7.94 µM [falling, partial curve]
6 | CC(C)(C)Cc1nc(-c2ccccn2)no1 | 3.16 µM [falling, full curve]
7 | CCOC(=O)CSc1nc2sc(C(=O)O)c(C)c2c(=O)[nH]1 | 12.6 µM [falling, partial curve]
8 | COc1ccccc1NC(=O)CCC(=O)Nc1ccccc1OC | 12.6 µM [falling, partial curve]
9 | O=C1C=C(N2CCN(c3ccccn3)CC2)C(=O)c2c(O)ccc(O)c21 | 5.01 µM [rising, partial curve] [measured here: IkB-luc green channel]
10 | O=C(Nn1c(Cc2cccs2)nc2ccccc2c1=O)c1cccs1 | 39.8 µM [falling, single point]
11 | COc1ccc(-c2nc(CSCC(=O)NCCc3ccc(C)cc3)c(C)o2)cc1OC | 31.6 µM [falling, single point]
12 | CCS(=O)(=O)c1ccccc1C(=O)N(Cc1cccnc1)c1nc2cc(C)c(C)cc2s1 | 2.51 µM [rising, partial curve]
13 | Cc1c(C(=O)NCc2ccc(Cl)cc2)sc2nc3n(c(=O)c12)CCCC3 | 31.6 µM [falling, single point]
14 | CCOc1ccc(CNC(=O)c2ccc(NC(=O)c3nsc4ccccc34)cc2)cc1 | 0.251 µM [falling, full curve]
15 | CC1(C)CC(=O)C2=C(C1)NC(SCC(=O)Nc1ccccc1)=C(C#N)C21CCCCC1 | 3.16 µM [falling, full curve]
16 | CCC(Cc1ccccc1)NC(=O)c1oc(=O)c2ccccc2c1-c1ccccc1 (configuration not stated) | 39.8 µM [falling, single point]

Looked up above.
O=C(Nn1c(Cc2cccs2)nc2ccccc2c1=O)c1cccs1 – AC50: 39.8 µM [falling, single point]
CC1=C(C(=O)Nc2ccc(C)cc2C)C(c2ccccc2)n2nc(SCC(=O)c3ccc(C)cc3)nc2N1 (configuration not stated) – AC50: 7.94 µM [rising, single point]

Further entries:

Row | SMILES | AC50
17 | Cc1cccc(C)c1OCCCCn1c(C2CC(=O)N(c3ccc(F)cc3)C2)nc2ccccc21 (configuration not stated) | 15.8 µM [falling, partial curve]
18 | Cc1cc(NC(c2nnc(-c3ccccc3)o2)c2ccccc2F)ccc1Br (configuration not stated) | 15.8 µM [falling, single point]
19 | CCN1C(=O)c2cccc3c(S(=O)(=O)Nc4ccc(O)c(C(=O)O)c4)ccc1c23 | 31.6 µM [falling, partial curve]
20 | CCOc1ccccc1C(=O)N(Cc1ccc(N(C)C)cc1)CC1CCCO1 (configuration not stated) | 39.8 µM [falling, single point]
21 | CC(C)(C)OC(=O)N1CCC(c2c(C(=O)N3CCc4ccccc4C3)cnn2-c2ccc(Cl)cc2)CC1 | 31.6 µM [falling, partial curve]
22 | O=C(O)c1c(F)c(F)c(F)c(F)c1-c1ccc(Cl)cc1 | 12.6 µM [falling, partial curve]
23 | Cc1cc(C)cc(C(=O)N2CC(=O)Nc3ccc(C)cc3C2c2ccccc2)c1 (configuration not stated) | 25.1 µM [falling, partial curve]
24 | c1ccc(C(c2cccs2)c2c[nH]c3ccccc23)cc1 (configuration not stated) | 12.6 µM [falling, partial curve]
25 | Cc1cccc(Cn2c(=O)n(Cc3ccco3)c(=O)c3ccccc32)c1 | 39.8 µM [falling, single point]
26 | Cc1ccc(-c2noc(CN(C3CCCCC3)S(=O)(=O)c3ccc(Cl)cc3)n2)cc1 | 0.251 µM [falling, partial curve]
27 | Cc1ccc(CNc2ncnc3c2c(-c2ccccc2)cn3-c2cccc(Cl)c2)cc1 | 1.58 µM [rising, full curve, poor fit]
28 | COc1ccc(-c2nc3n(n2)C(c2ccccc2F)C(C(=O)Nc2cccnc2)=C(C)N3)cc1OC (configuration not stated) | 10 µM [falling, partial curve]
29 | Oc1ccc(Cl)cc1Sc1cc(Cl)ccc1O | 1.58 µM [falling, full curve]
30 | CCCCN(C(=O)c1cccc(S(=O)(=O)N2CCCCC2)c1)C1CCS(=O)(=O)C1 (configuration not stated) | 0.126 µM [rising, full curve]
31 | O=C(Nc1ccc(F)c(Cl)c1)N1CCN2CCCCC2C1 (configuration not stated) | 5.01 µM [falling, partial curve]
32 | CCS(=O)(=O)N1Cc2ccccc2CC1C(=O)Nc1nc2ccccc2[nH]1 (configuration not stated) | 0.0501 µM [falling, full curve]
